The values that follow come from patent US11434299 (TENEOBIO, dated 2022).

By UniProt entry, the sequences of proteins in these tests, tags left out.
UniProt Q02223: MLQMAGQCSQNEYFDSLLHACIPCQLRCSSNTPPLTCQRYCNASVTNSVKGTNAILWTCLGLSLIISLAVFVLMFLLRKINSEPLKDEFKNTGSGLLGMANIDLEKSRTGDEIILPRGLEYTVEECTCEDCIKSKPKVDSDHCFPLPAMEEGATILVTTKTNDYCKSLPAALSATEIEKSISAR

These are yes or no findings as the source states them, for the method shown. Some results given as binding are weak or reduced against the parent protein; the word gives no strength.

The target in this test is human BCMA (B-Cell Maturation Antigen) on NCI-H929 cells (human) (UniProt Q02223). The test can be described thus: flow cytometry, HEK supernatants on NCI-H929 cells (BCMA+).

B1: SEQ ID NO 25 (antibody, V domains shown)
VH: EVQLLESGGGLVQPGGSLRLSCAASGFTFSSYAMNWVRQAPGKGLEWVSGITGSGGTTYYADSVKGRFTISRDNSKNTLYLQMNSLRAEDTAVYYCVKDWNTTMITERGQGTLVTVSS
For B1, the binding result is recorded as “binds”.

B2: SEQ ID NO 26 (antibody, V domains shown)
VH: EVQLLESGGGLVQPGGSLRLSCAASGFTFSSYAMNWVRQAPGKGLEWVSGITGSGGTTYYADSVKGRFTISRDNSKNTLYLQMNSLRAEDTAVYYCVKDWNTTMITERGQGTLVTVSS
Turning to B2, the binding result is “binds”.
